Experimental data from US20240173273A1 (priority 2021, published 2024).

Key:
[1] = test system: SARS-COV-2; type: cell-based
[2] = test system: Vero E6 cells

SMILES: CC(C)(CO)[C@@H](O)C(=O)NCCC(=O)NCCSSCCNC(=O)CCNC(=O)[C@H](O)C(C)(C)CO [pantethine, (2R,2′ R)—N,N′-(3,12-Dioxo-7,8-dithia-4,11-diazatetradecane-1,14-diyl)bis(2,4-dihydroxy-3,3-dimethylbutanamide)]
- relative expression of N and NSP6 genes in the supernatants of infected cells [1]: reduce significantly
- toxic effect on Vero cells (viability) [2]: no significant toxic effect
